Data as given in the supplement of paper PMC10849652.
The other results are listed elsewhere or left out.

Amino acid sequences for entries named in this document (tags omitted). A change or cut given only in a name is not applied to a line headed by its entry.
UniProt Q9NXE8: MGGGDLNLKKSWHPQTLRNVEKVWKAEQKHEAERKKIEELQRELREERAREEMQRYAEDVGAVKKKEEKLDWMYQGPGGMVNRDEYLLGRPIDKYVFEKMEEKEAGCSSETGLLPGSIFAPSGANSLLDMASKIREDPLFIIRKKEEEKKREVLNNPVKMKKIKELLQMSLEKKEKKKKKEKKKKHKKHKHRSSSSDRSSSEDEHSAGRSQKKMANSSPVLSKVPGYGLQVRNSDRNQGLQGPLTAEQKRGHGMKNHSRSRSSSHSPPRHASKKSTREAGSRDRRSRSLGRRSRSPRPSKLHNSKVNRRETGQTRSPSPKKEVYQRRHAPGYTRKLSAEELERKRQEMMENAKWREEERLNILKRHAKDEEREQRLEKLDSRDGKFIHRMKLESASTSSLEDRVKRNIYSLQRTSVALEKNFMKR
UniProt Q96F07, whole entry, looked up: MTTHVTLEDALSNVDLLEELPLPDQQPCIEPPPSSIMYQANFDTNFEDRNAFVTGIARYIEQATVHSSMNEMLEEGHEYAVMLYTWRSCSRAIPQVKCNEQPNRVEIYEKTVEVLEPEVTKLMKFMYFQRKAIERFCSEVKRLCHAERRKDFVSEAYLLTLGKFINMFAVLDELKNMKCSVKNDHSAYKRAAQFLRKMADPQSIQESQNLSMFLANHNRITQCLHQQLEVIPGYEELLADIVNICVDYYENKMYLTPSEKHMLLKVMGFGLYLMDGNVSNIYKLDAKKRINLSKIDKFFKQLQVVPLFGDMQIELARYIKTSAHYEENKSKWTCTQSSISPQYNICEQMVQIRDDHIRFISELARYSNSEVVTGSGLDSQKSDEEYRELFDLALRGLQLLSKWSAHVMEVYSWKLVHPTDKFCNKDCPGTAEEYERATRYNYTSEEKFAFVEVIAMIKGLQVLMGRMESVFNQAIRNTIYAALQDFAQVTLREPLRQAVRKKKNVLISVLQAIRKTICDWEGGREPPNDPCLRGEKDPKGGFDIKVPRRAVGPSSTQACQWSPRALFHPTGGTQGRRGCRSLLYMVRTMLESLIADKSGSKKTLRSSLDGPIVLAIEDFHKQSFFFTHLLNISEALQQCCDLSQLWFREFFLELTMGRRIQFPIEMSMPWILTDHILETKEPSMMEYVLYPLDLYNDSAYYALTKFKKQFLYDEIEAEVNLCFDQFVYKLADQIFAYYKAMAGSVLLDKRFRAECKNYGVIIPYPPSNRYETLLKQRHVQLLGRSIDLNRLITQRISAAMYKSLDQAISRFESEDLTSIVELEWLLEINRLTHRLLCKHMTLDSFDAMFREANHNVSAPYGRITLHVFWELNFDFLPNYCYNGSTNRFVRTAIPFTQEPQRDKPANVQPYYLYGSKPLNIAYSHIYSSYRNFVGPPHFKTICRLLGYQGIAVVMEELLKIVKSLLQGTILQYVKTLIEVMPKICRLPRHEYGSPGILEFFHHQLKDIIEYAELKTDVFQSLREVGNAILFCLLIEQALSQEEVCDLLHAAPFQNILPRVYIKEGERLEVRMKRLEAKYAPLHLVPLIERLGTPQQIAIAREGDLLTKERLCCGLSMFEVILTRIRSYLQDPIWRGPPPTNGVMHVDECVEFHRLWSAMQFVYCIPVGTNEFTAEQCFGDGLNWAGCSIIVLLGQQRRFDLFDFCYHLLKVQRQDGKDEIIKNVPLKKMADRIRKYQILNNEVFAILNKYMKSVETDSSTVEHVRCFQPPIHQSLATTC
UniProt P14868: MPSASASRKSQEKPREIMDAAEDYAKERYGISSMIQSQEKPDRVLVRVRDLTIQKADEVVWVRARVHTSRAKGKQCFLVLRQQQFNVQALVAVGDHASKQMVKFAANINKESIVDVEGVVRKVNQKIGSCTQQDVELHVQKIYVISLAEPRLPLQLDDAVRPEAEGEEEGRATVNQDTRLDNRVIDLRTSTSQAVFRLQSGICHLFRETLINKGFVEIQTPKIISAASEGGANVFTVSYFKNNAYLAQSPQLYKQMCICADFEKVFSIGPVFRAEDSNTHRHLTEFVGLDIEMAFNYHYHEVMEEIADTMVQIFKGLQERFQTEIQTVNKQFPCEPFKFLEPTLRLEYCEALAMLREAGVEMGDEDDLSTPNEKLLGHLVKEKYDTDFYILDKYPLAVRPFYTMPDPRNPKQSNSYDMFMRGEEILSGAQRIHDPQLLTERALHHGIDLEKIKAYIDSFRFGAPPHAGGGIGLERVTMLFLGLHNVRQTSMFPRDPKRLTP
UniProt Q6PI48: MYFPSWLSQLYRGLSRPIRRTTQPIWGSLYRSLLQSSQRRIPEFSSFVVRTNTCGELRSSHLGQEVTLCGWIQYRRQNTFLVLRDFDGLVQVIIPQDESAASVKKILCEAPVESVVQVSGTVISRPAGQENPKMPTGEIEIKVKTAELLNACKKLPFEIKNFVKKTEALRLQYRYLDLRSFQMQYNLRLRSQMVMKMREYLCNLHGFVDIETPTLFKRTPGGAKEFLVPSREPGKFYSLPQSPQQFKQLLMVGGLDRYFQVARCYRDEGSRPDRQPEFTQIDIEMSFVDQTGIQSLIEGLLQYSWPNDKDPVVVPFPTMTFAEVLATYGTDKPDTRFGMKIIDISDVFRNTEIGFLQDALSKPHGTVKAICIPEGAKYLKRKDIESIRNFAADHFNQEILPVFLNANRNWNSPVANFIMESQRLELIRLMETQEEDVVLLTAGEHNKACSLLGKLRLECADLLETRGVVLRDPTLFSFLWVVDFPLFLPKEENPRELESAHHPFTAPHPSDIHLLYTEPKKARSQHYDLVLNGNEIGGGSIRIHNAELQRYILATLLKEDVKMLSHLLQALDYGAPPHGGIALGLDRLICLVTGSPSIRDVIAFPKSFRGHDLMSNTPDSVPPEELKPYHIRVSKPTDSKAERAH
UniProt Q8WVC6: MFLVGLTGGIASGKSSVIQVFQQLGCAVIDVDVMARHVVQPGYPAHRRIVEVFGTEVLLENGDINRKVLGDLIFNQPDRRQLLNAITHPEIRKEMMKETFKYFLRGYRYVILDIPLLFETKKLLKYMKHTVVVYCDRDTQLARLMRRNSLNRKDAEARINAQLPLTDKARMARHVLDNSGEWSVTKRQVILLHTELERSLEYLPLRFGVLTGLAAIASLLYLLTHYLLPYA
UniProt P27707: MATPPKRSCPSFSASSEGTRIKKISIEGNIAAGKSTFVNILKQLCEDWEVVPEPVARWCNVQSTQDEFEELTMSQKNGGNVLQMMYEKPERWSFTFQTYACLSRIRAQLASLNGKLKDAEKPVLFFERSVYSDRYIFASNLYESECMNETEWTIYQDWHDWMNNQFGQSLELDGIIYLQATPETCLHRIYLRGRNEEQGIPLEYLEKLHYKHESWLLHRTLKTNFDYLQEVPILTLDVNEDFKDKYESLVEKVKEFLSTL
UniProt P26232: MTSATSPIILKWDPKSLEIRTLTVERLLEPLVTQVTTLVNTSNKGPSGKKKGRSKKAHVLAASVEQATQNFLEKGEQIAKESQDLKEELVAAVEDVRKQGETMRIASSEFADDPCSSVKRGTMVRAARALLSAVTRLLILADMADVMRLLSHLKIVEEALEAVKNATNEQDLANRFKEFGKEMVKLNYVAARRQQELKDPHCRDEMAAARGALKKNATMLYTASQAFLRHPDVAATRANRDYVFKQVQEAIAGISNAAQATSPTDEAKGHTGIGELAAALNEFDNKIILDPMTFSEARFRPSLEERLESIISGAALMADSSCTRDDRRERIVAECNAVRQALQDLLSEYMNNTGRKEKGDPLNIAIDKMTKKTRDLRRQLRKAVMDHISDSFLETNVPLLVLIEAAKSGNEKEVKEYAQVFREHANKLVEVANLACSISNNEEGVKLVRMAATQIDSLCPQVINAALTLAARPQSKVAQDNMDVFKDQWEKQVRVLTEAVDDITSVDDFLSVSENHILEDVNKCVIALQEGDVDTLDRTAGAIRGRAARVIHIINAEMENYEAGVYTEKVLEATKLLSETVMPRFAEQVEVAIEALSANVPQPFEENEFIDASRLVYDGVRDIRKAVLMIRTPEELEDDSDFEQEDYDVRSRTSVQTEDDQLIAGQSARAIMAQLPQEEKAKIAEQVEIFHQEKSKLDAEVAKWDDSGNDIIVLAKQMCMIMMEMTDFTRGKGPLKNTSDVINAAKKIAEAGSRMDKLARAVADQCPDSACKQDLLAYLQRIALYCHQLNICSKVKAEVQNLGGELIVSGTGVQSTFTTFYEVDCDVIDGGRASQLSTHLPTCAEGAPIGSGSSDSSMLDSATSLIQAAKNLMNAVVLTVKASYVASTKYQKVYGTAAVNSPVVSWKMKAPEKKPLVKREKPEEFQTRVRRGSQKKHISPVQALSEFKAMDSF
UniProt Q96C86: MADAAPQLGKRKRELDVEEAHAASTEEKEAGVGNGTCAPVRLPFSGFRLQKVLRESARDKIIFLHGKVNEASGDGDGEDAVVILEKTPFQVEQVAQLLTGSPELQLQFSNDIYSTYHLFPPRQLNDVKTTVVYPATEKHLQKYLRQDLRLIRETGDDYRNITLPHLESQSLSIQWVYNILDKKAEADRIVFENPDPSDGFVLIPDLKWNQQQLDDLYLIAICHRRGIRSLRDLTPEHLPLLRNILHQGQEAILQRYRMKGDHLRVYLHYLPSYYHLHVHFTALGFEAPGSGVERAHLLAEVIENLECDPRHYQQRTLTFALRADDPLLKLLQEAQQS
UniProt P49711: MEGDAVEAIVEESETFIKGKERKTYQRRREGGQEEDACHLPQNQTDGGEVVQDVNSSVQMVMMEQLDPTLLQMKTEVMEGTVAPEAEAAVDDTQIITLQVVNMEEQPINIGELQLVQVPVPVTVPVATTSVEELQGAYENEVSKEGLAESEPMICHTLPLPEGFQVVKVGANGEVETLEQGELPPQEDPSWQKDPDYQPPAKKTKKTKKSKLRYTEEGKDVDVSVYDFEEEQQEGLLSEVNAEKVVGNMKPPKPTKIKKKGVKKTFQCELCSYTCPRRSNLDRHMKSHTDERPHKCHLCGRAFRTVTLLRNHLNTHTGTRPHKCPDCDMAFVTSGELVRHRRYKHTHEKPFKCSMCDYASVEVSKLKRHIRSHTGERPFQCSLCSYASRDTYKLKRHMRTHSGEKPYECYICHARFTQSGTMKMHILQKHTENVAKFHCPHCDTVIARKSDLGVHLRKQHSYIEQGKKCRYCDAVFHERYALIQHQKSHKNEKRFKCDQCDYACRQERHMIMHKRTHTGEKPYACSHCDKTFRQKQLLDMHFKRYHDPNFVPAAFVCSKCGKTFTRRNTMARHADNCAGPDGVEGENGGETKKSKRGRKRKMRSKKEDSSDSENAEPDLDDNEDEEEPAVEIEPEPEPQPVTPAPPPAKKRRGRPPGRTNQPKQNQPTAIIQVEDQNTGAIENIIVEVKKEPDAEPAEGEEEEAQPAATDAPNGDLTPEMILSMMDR
UniProt P04080: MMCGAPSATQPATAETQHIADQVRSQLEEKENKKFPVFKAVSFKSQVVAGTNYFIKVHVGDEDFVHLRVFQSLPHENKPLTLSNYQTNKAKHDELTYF
UniProt P32929, whole entry, looked up: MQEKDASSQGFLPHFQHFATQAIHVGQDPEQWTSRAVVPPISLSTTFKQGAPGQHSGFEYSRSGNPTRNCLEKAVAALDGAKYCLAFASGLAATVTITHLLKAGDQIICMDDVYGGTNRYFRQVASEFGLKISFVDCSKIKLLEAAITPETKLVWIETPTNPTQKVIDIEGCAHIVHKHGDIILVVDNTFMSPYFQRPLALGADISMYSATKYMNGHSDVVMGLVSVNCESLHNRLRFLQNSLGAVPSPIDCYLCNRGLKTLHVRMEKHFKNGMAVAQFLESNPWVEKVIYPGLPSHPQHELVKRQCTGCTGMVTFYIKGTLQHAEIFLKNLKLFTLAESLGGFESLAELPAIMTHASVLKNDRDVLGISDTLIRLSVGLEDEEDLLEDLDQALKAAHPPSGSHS
UniProt P0DMU9: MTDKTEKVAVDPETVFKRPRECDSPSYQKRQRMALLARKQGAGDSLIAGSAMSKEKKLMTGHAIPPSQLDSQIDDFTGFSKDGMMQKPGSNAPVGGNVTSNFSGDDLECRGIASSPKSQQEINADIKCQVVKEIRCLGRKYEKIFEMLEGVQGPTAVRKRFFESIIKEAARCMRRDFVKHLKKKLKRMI
UniProt Q9UHQ9: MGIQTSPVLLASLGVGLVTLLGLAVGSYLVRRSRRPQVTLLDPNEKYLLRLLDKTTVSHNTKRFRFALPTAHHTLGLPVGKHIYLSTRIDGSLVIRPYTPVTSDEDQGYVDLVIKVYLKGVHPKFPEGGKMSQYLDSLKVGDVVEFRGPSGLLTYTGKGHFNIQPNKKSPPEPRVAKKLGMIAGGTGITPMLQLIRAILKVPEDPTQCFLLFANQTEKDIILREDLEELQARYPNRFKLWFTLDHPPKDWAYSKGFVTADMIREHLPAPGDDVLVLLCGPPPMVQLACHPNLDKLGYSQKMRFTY
UniProt O75935, whole entry, looked up: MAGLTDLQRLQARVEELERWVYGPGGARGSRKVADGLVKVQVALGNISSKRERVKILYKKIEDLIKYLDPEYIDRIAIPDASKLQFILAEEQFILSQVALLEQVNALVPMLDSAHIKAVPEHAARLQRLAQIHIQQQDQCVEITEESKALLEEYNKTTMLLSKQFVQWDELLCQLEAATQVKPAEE

Each target was assayed with C#Cc1cccc(Nc2ncnc3cc(OCCOC)c(OCCOC)cc23)c1 [erlotinib] (assay: log2 fold change, soluble protein after heating vs DMSO (PISA); higher = thermal stabilisation; K562 cells, 10 uM, 30 min; active = over 0.2 and 3.5 SD of the protein, either way, in both replicates (recomputed)).
In short: (§1)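 Soluble protein was quantified by TMTpro 16plex LC-MS/MS after channel sums were equalised. It was obtained as the supernatant after 21,000xg for 90 min from pooled aliquots of K562 cells (2×10^6 cells/mL, 10 μM compound, 30 min) heated for 3 min across 48°C-58°C and extracted in PBS with 0.5% NP-40 at 4°C. Thermal stability values are relative to control samples and come from duplicates. They are given as log2 fold changes.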

log2 fold change, inactive:
CTPS2 (UniProt Q9NRF8) 0.04, CWC25 (UniProt Q9NXE8) -0.056, CYFIP2 (UniProt Q96F07) -0.056, CZIB (UniProt Q9NWV4) -0.04, DARS (UniProt P14868) 0.002, CYCS (UniProt P99999) -0.03, DARS2 (UniProt Q6PI48) -0.008, DAP3 (UniProt P51398) -0.065, CTBP1 (UniProt Q13363) 0.014, DCTN2 isoform 2 (UniProt Q13561) -0.005, CSTF1 (UniProt Q05048) -0.03, DCAKD (UniProt Q8WVC6) 0.045, DCK (UniProt P27707) 0.032, CYB5R4 (UniProt Q7L1T6) -0.027, CWF19L1 (UniProt Q69YN2) -0.072, DCAF11 (UniProt Q8TEB1) 0.019, CSTF2T (UniProt Q9H0L4) -0.009, CTU2 (UniProt Q2VPK5) 0.024, CUL2 isoform 2 (UniProt Q13617) -0.032, CTNNA2 (UniProt P26232) -0.041, CYB5R2 (UniProt Q6BCY4) 0.055, DCPS (UniProt Q96C86) 0.03, CTIF isoform 2 (UniProt O43310) -0.039, CUL1 (UniProt Q13616) 0.006, CTCF (UniProt P49711) -0.104, CSTB (UniProt P04080) -0.047, CUL3 (UniProt Q13618) 0.013, CTH (UniProt P32929) 0.009, CUL4B (UniProt K4DI93) 0.018, CYP20A1 (UniProt Q6UW02) 0.008, DCTN6 (UniProt O00399) 0.009, CYHR1 (UniProt E9PJD7) 0.004, CUTC (UniProt Q9NTM9) -0.053, DCP1A (UniProt Q9NPI6) 0.008, CSPP1 (UniProt Q1MSJ5) -0.016, DCAF1 (UniProt Q9Y4B6) -0.017, CT45A10 (UniProt P0DMU9) -0.051, CYB5R1 (UniProt Q9UHQ9) 0.028, DCTN3 (UniProt O75935) 0.021

What follows are targets tested with C/C(=N\NC(=O)C1=CC(=CC=C1)S(=O)(=O)N2CCOCC2)/C3=C(C=CC(=C3)Cl)O in the same assay as above.
In short: as §1

log2 fold change, inactive:
CTPS2 (UniProt Q9NRF8) 0.013, CWC25 (UniProt Q9NXE8) -0.27, CYFIP2 (UniProt Q96F07) 0.075, CZIB (UniProt Q9NWV4) -0.021, DARS (UniProt P14868) 0.003, CYCS (UniProt P99999) 0.015, DARS2 (UniProt Q6PI48) -0.017, DAP3 (UniProt P51398) -0.019, CTBP1 (UniProt Q13363) -0.02, DCTN2 isoform 2 (UniProt Q13561) 0.064, CSTF1 (UniProt Q05048) -0.001, DCAKD (UniProt Q8WVC6) -0.073, DCK (UniProt P27707) -0.013, CYB5R4 (UniProt Q7L1T6) 0.013, CWF19L1 (UniProt Q69YN2) 0.011, DCAF11 (UniProt Q8TEB1) -0.003, CSTF2T (UniProt Q9H0L4) 0.004, CTU2 (UniProt Q2VPK5) 0.017, CUL2 isoform 2 (UniProt Q13617) 0.05, CTNNA2 (UniProt P26232) 0.083, CYB5R2 (UniProt Q6BCY4) -0.044, DCPS (UniProt Q96C86) 0.032, CTIF isoform 2 (UniProt O43310) -0.018, CUL1 (UniProt Q13616) 0.031, CTCF (UniProt P49711) -0.171, CSTB (UniProt P04080) 0.05, CUL3 (UniProt Q13618) 0.021, CTH (UniProt P32929) 0.029, CUL4B (UniProt K4DI93) 0.038, CYP20A1 (UniProt Q6UW02) 0.023, DCTN6 (UniProt O00399) -0.015, CYHR1 (UniProt E9PJD7) -0.02, CUTC (UniProt Q9NTM9) -0.013, DCP1A (UniProt Q9NPI6) 0.019, CSPP1 (UniProt Q1MSJ5) -0.07, DCAF1 (UniProt Q9Y4B6) 0.1, CT45A10 (UniProt P0DMU9) -0.095, CYB5R1 (UniProt Q9UHQ9) 0.047, DCTN3 (UniProt O75935) 0.005
